# Test results as given in patent publication EP0450100A1, “PHYSIOLOGICALLY ACTIVE PEPTIDE” (MEIJI SEIKA KAISHA LTD., priority 1989, dated 1991).
# Not every detail of the peptide structures is certain; ends, links or a residue may be inferred. No end group written: not given here.
# System: canine femoral artery
# Assay: Influence of the peptides on the blood flow passing through canine femoral artery (VIP bioassay method of Said and Mutt)
# Type: in vivo, beagles
# Conditions: for activity of increasing the blood flow rate (femoral arterial blood flow rate) compared with helodermin / sustaining of the blood-flow-rate-increasing activity compared with helodermin: anesthetized beagles, 200 p mol/kg injected into the femoral artery, 0.5 to 4 minutes after injection, conclusion from Table 1 and Table 2; for relaxing smooth muscle of blood vessel and increase of the rate of blood stream (hyperkinemic action): when tested with a canine femoral artery
# Description: The above-mentioned influence was estimated according to the VIP bioassay method proposed by Said and Mutt [see "Nature" 225, 863-864 (1970)]. After three mature beagles having the body weight of 10 kg were fasted for 18 hours, they were anesthetized with thiamylal (10 mg/kg) and Nembutal ([…]). During the experiment, physiological saline was continuously injected (2 mℓ/min.) into a vein of each beagle and the body temperature of the beagle was maintained at 37-38°C by an electric heater. The femoral artery was surgically exposed, and a polyethylene tube filled with heparin-added physiological saline was inserted in and fixed to a muscle branch of the femoral artery so that the polyethylene tube could be used as an injection route for each peptide under test. A probe of an electro-magnetic blood flowmeter was attached to the femoral artery on a peripheral side of the muscle branch so that the average flow rate of blood through the artery was recorded as time-dependent variations on a polygraphy.
# A solution of 10 µg of each tested polypeptide dissolved in 25 µℓ of 0.01 N HCl was diluted with physiological saline to prepare an injectable solution of the peptide. The injectable solution was injected into the artery by means of a peristaltic pump. Each peptide was injected at the dose of 200 p mol/kg. Tested peptides included the following compounds: Compound 1: Hd(1-33)-NH2 [the invention peptide of formula (Ic)] Compound 2: Hd(1-31)-NH₂ [the invention peptide of formula (Ia)] Compound 3: VIP(1-28)-Hd(29-35)-NH₂ [the invention peptide of formula (III)] Compound 4: VIP(1-11)-Hd(12-31)-NH₂ [the invention peptide of formula (II)]
# Upon elapsed times of 0.5 minute, 1 minute, 2 minutes, 3 minutes and 4 minutes after the injection of each peptide under test,the blood flow rate was measured. Increases in the femoral arterial blood flow rate (mℓ/min.) as comapred with the basal level of blood flow rate were calculated. It may be added that the test results of Table 1 and those of Table 2 were obtained through tests which were conducted by the same method but at different times.
Compound,activity of increasing the blood flow rate (femoral arterial blood flow rate) compared with helodermin,sustaining of the blood-flow-rate-increasing activity compared with helodermin,relaxing smooth muscle of blood vessel and increase of the rate of blood stream (hyperkinemic action)
"CC[C@H](C)[C@H](NC(=O)[C@H](CO)NC(=O)[C@H](CC(N)=O)NC(=O)[C@H](CC(C)C)NC(=O)[C@H](Cc1ccc(O)cc1)NC(=O)[C@H](CCCCN)NC(=O)[C@H](CCCCN)NC(=O)[C@@H](NC(=O)[C@H](C)NC(=O)[C@H](CCSC)NC(=O)[C@H](CCC(N)=O)NC(=O)[C@H](CCCCN)NC(=O)[C@H](CCCNC(=N)N)NC(=O)[C@H](CC(C)C)NC(=O)[C@H](CCCNC(=N)N)NC(=O)[C@@H](NC(=O)[C@H](Cc1ccc(O)cc1)NC(=O)[C@H](CC(N)=O)NC(=O)[C@H](CC(=O)O)NC(=O)[C@@H](NC(=O)[C@H](Cc1ccccc1)NC(=O)[C@@H](NC(=O)[C@H](C)NC(=O)[C@H](CC(=O)O)NC(=O)[C@H](CO)NC(=O)[C@@H](N)Cc1c[nH]cn1)C(C)C)[C@@H](C)O)[C@@H](C)O)C(C)C)C(=O)N[C@@H](CC(C)C)C(=O)N[C@@H](CC(N)=O)C(=O)N[C@@H](CO)C(=O)N[C@@H](CCCNC(=N)N)C(=O)N[C@H](C(=O)N[C@@H](CO)C(=O)N1CCC[C@H]1C(=O)N1CCC[C@H]1C(=O)N1CCC[C@H]1C(N)=O)[C@@H](C)O [Compound 3, VIP(1-28)-Hd(29-35)-NH₂]",enhanced activity of increasing the blood flow rate over helodermin,effects of sustaining the blood-flow-rate-increasing activity in comparison with helodermin,activities of relaxing smooth muscle of blood vessel and of allowing the rate of blood stream to increase
"HSDAVFTDNYTKLLAKLALQKYLASILGSRT-NH2 [Compound 4, VIP(1-11)-Hd(12-31)-NH₂]",enhanced activity of increasing the blood flow rate over helodermin,effects of sustaining the blood-flow-rate-increasing activity in comparison with helodermin,activities of relaxing smooth muscle of blood vessel and of allowing the rate of blood stream to increase
